From the supplement of paper PMC10849652
The other results are listed elsewhere or left out.

The chains behind the UniProt entries cited, without tags or fusion partners. Where a name states a change or a piece, a line headed by the entry shows the natural chain unless it says otherwise.
UniProt Q7Z2K6: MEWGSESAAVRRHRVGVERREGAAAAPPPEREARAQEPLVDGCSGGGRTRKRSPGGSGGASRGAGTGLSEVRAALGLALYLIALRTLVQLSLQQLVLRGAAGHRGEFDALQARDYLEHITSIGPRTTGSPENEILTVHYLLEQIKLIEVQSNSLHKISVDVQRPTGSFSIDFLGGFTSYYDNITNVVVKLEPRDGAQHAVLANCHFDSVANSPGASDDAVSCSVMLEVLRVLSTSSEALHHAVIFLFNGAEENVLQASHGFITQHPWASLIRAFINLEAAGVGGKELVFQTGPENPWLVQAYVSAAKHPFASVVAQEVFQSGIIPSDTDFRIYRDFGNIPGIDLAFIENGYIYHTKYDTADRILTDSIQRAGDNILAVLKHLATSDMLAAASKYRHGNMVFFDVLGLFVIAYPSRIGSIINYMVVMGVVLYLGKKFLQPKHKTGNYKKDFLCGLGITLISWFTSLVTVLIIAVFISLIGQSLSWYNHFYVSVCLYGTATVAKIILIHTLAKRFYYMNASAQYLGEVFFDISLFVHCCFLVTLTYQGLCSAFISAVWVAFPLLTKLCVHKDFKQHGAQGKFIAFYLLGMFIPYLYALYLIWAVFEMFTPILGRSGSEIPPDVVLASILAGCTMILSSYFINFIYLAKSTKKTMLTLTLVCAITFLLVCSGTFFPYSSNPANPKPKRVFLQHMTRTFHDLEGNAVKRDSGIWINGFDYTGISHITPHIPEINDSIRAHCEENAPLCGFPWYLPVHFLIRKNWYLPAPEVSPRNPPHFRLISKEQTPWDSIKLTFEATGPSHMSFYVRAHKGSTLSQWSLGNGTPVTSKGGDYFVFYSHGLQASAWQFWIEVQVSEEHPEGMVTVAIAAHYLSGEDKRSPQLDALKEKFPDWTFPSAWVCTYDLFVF
UniProt O95571: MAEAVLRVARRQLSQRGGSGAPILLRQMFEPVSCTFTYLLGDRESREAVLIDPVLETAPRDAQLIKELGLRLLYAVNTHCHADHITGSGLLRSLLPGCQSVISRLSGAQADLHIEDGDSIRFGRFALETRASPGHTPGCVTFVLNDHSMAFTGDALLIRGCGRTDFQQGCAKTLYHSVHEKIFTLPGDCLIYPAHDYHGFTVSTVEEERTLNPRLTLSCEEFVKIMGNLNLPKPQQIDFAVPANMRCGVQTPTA
UniProt P16930: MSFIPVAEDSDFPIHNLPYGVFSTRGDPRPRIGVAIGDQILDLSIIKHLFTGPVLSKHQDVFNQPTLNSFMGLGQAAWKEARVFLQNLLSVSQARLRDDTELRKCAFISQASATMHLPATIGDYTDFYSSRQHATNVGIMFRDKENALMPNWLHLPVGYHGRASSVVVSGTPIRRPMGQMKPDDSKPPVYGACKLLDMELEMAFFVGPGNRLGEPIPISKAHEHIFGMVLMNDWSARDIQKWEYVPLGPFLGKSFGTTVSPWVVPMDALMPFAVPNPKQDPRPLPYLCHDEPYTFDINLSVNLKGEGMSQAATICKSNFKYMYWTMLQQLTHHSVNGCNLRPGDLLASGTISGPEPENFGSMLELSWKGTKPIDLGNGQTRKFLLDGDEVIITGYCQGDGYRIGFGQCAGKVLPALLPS
UniProt Q9BS26: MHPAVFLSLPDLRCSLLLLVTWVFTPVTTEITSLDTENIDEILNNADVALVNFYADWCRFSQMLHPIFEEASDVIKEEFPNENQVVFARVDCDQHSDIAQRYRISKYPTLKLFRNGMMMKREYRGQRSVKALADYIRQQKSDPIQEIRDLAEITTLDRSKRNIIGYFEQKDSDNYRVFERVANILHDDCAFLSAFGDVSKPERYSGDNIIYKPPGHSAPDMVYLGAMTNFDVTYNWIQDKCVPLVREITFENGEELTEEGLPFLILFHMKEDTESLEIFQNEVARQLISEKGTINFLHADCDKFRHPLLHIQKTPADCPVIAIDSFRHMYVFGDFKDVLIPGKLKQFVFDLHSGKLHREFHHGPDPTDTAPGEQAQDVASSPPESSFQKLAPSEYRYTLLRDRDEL
UniProt Q96CS3: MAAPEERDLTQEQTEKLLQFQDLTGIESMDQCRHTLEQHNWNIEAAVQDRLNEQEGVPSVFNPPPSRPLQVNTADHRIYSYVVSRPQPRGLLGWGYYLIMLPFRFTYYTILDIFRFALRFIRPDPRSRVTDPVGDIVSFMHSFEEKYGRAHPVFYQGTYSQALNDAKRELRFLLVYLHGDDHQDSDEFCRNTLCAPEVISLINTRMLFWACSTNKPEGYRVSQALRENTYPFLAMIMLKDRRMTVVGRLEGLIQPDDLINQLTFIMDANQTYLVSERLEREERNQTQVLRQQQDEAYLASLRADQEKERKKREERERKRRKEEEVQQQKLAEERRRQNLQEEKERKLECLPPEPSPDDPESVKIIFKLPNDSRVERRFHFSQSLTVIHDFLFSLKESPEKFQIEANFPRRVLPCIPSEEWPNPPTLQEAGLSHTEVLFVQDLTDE
UniProt Q0VG06: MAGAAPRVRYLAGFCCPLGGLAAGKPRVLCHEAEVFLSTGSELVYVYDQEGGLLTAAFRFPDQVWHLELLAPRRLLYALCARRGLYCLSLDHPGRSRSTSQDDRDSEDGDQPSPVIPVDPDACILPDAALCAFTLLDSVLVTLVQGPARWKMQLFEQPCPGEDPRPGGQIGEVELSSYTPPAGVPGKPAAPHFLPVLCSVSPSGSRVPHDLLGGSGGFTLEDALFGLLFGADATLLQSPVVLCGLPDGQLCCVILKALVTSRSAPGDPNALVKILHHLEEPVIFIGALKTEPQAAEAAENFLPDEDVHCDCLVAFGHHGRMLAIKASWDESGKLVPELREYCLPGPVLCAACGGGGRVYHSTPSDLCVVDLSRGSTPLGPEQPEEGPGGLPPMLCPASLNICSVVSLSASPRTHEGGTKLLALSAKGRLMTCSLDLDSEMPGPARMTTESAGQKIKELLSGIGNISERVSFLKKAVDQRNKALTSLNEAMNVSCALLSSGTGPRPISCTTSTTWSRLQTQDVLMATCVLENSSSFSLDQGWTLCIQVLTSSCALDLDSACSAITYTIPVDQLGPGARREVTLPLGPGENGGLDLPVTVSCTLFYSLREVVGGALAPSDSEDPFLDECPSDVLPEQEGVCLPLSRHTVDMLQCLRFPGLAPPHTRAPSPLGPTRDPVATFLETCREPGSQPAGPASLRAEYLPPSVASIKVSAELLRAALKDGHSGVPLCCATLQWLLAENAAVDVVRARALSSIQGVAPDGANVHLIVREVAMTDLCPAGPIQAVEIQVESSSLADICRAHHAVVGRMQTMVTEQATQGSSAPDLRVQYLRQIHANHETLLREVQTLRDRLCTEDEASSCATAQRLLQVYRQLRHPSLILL
UniProt P19447: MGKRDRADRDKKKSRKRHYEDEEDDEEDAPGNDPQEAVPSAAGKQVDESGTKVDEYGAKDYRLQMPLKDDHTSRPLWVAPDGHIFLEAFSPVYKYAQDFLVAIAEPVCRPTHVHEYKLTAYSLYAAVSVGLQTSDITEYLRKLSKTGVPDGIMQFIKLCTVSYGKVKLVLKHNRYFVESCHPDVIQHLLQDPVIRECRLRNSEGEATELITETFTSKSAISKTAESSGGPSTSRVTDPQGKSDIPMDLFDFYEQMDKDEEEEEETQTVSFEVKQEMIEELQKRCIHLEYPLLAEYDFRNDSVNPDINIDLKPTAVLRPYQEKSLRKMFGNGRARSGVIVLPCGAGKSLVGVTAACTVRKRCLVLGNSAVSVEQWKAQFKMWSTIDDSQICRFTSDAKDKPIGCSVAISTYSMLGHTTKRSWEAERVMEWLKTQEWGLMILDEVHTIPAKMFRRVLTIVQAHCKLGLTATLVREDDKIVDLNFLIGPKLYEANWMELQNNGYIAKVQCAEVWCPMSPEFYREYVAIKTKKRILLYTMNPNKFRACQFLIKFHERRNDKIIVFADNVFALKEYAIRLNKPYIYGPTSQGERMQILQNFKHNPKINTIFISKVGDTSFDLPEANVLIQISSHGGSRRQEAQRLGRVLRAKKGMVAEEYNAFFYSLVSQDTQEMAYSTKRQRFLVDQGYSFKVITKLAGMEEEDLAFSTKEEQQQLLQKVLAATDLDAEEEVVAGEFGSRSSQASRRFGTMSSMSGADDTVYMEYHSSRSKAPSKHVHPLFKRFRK
UniProt Q96A26: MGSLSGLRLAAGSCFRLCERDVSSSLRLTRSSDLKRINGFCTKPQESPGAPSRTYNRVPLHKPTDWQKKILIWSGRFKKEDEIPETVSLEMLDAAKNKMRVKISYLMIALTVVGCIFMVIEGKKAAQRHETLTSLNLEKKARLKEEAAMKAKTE

How the values were obtained:
Experiment in all cases: log2 fold change, soluble protein after heating vs DMSO (PISA); higher = thermal stabilisation; K562 cells, 10 uM, 30 min; active = over 0.2 and 3.5 SD of the protein, either way, in both replicates (recomputed)
[1] = compound: C1=CC=C(C=C1)[C@H](COC2=CC3=C(C=C2)NC(=O)N3)NC(=O)C4=CC=CN(C4=O)CC5=CC(=C(C=C5)F)F
Outline: (§1)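 Soluble protein was quantified by TMTpro 16plex LC-MS/MS after channel sums were equalised. It was obtained as the supernatant after 21,000xg for 90 min from pooled aliquots of K562 cells (2×10^6 cells/mL, 10 μM compound, 30 min) heated for 3 min across 48°C-58°C and extracted in PBS with 0.5% NP-40 at 4°C. Thermal stability values are relative to control samples and come from duplicates. They are given as log2 fold changes.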

[2] = compound: CC1=C(SC2=C1C(=N[C@H](C3=NN=C(N32)C)CC(=O)N)C4=CC=C(C=C4)Cl)C
Outline: as §1

[3] = compound: CC1=C2C(=CC=C1)N=C(N(C2=O)C3=CC=CC=C3C)CN4C=NC5=C(N=CN=C54)N
Outline: as §1

[4] = compound: Cc1sc2c(c1C)C(c1ccc(Cl)cc1)=N[C@@H](CC(=O)OC(C)(C)C)c1nnc(C)n1-2
Outline: as §1

[5] = compound: c1ccc([C@@H]2C[C@H]2NC2CCNCC2)cc1
Outline: as §1

Measured: log2 fold change

ERMP1 (UniProt Q7Z2K6)
inactive: [1] 0.02 | [2] 0.027 | [3] 0.079 | [4] -0.045 | [5] 0.02

ETHE1 (UniProt O95571)
inactive: [1] -0.024 | [2] -0.02 | [3] 0.037 | [4] -0.032 | [5] 0.03

FAH isoform 2 (UniProt P16930)
inactive: [1] -0.198 | [2] 0.06 | [3] 0.016 | [4] -0.027 | [5] 0.005

ERP44 (UniProt Q9BS26)
inactive: [1] 0.065 | [2] 0.01 | [3] 0.001 | [4] 0.004 | [5] -0.015

FAF2 (UniProt Q96CS3)
inactive: [1] 0.002 | [2] 0.025 | [3] 0.067 | [4] -0.012 | [5] -0.017

FAAP100 (UniProt Q0VG06)
inactive: [1] -0.243 | [2] 0.078 | [3] 0.017 | [4] -0.073 | [5] 0.067

ERCC3 (UniProt P19447)
inactive: [1] -0.203 | [2] -0.059 | [3] 0.028 | [4] -0.277 | [5] -0.042

2 consecutive entries already listed:
FAAP100 (UniProt Q0VG06)
inactive: [1] -0.243 | [2] 0.078 | [3] 0.017 | [4] -0.073 | [5] 0.067

ERCC3 (UniProt P19447)
inactive: [1] -0.203 | [2] -0.059 | [3] 0.028 | [4] -0.277 | [5] -0.042

(continued)

FAM162A (UniProt Q96A26)
inactive: [1] 0.043 | [2] 0.051 | [3] 0.129 | [4] -0.022 | [5] -0.026

ERP29 (UniProt P30040)
inactive: [1] 0.033 | [2] 0.012 | [3] 0.013 | [4] -0.014 | [5] -0.013
